Inconclusive means that the source gave no clear call. Such entries were picked first, then a sample of the others. For part of these data: Potencies beside an inconclusive call are fits to weak or partial responses and may not hold up. For part of these data: A note “side channel” means that the fit belongs to a control or component signal, not to the main read-out. Calls of active or inactive are those of the source. Unless noted, calls follow the shape of the dose curve; as a rule, active = well fitted curve in the direction sought with a large enough effect; inconclusive = small, poorly fitted or top-dose-only effect, or another doubt; inactive = no such curve, though single readings can be large; an effect the other way counts as inactive or inconclusive.
Tests used:
[1] = molecular target: Peroxisome proliferator-activated receptor delta (Homo sapiens) (UniProt Q03181); assay: qHTS assay for small molecule antagonists of peroxisome proliferator-activated receptor delta signaling (AID 588535; active = well fitted inhibition curve with a large enough effect in the signal ratio, with a control signal flat, not every such curve was filed as active; inconclusive = small, poorly fitted or top-dose-only effect, or effect the other way, or a change in a side signal; inactive = no such curve, though single readings can be large or run the other way; the % refers to the signal ratio; also: potency is read from the fitted curve at half-maximal effect); settings: HEK293T PPARd-UAS-bla, beta-lactamase FRET ratio, 18 h; activity change, negative = inhibition: at 76.7 µM (top of the series) unless noted
How it was run: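 HEK293T PPAR-delta-UAS-bla cells, 4000/well, 2% charcoal/dextran FBS; 5 h 37 C; cpd titration; 18 h 37 C; CCF4 2 h RT; FI 460/530 nm; Hill fit → IC50, efficacy.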

The chains behind the UniProt entries cited, without tags or fusion partners. Where a name states a change or a piece, a line headed by the entry shows the natural chain unless it says otherwise.
UniProt Q03181: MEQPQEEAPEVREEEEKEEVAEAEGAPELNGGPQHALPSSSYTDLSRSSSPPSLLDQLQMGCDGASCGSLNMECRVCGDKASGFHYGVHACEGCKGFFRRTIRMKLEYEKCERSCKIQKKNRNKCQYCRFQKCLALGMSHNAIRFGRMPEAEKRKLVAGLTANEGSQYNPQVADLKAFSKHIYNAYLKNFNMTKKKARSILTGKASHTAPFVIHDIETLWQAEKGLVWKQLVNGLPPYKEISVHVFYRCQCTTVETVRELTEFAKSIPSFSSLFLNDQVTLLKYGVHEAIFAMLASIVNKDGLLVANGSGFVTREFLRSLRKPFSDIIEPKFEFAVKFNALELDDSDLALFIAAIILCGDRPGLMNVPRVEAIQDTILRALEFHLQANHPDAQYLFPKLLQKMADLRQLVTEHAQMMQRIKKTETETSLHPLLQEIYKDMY
UniProt P19793: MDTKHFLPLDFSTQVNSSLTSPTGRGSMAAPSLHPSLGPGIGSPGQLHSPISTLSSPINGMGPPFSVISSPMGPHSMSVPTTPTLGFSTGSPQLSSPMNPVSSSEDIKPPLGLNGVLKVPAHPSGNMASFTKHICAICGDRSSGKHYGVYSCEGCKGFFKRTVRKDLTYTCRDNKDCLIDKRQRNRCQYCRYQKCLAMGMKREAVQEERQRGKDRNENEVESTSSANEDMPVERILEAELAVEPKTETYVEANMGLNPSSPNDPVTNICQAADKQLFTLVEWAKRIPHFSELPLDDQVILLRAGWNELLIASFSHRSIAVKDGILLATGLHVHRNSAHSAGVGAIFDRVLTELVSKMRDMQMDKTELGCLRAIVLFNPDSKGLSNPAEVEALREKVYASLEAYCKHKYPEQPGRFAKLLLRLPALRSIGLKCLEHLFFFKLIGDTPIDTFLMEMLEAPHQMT
UniProt P10828: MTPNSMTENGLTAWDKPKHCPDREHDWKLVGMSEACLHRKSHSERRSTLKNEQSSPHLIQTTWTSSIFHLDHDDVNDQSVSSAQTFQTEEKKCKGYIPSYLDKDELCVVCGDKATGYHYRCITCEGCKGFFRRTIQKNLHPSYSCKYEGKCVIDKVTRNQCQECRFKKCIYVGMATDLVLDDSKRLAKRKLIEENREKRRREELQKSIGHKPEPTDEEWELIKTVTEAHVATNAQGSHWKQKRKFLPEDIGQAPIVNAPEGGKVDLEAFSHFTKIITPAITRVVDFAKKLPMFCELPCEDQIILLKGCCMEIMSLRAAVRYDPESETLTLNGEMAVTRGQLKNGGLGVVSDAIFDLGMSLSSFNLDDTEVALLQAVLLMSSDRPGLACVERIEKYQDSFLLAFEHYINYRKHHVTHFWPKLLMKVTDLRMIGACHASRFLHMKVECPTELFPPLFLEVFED

[2] = molecular target: Retinoic acid receptor RXR-alpha (Homo sapiens) (UniProt P19793); assay: qHTS assay for small molecule agonists of retinoid X receptor alpha signaling (AID 588544; calls by dose curve; also: potency is read from the fitted curve at half-maximal effect;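 as to activation: 0% = DMSO basal wells and 100% = reference agonist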); settings: HEK293T RXRa-UAS-bla, beta-lactamase reporter, 18 h; activation: at 76.7 µM (top of the series) unless noted
[3] = qHTS assay for small molecule antagonists of the retinoid-related orphan receptor gamma (ROR-gamma) signaling pathway - cell viability counter screen (AID 720652; active = well fitted curve in the direction sought with a large enough effect in the repeat runs; inconclusive = weak or mixed curves; inactive = no such curve, though single readings can be large; an effect the other way counts as inactive or inconclusive;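 also: compound exposure lasted 16 hr before ATP read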; also: potency is read from the fitted curve at half-maximal effect; as to activity change, negative = cytotoxicity: % is scaled to controls: 0 for no effect and ±100 for the full control effect)
How it was run: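 Luminescence from CellTiter-Glo after 30 min at room temperature reported cellular ATP as the cytotoxicity measure. Cells were the CHO reporter line with doxycycline-induced ROR-gamma expression, exposed to compound for 16 hr at 37 C.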

[4] = Cellular Toxicity (caspase-3) Jurkat (AID 655); settings: Jurkat caspase-3 activation, luminescence; caspase-3 activation: at 92.2 µM (top of the series), DMSO = 0%, tamoxifen = 100%;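 also: potency is read from the fitted curve at half-maximal effect; cells exposed to compound for 16 h at 37 °C before reading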
How it was run: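 Luminescent caspase-3/7 readout (aminoluciferin substrate cleavage) in human T-cell leukemia Jurkat cells after 16 hr compound exposure. Concentration-response normalized to DMSO and 100 uM tamoxifen; AC50 by standard Hill equation.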

[5] = Cellular Toxicity (caspase-3) Hek293 (AID 664); settings: HEK293 caspase-3 activation, DMSO = 0%, 100 µM tamoxifen = 100%; at 92.2 µM (top of the series);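 also: cells exposed to compound for 16 h at 37 °C before readout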
How it was run: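 Cells plated, 5 hr at 37 °C; compounds added; 16 hr at 37 °C; Caspase-Glo 3/7 reagent, 20 min RT; luminescence read. Activation expressed relative to DMSO and 100 uM tamoxifen, AC50 by Hill model.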

[6] = Cell Viability - LYMP2-001 (AID 921); settings: LYMP2-001 lymphoblastoid cell viability; activity change, negative = cytotoxic: at 92.2 µM (top of the series); also: potency is read from the fitted curve at half-maximal effect; nearly all actives have a fitted effect of over 70% in size
How it was run: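 CellTiter-Glo luminescence (intracellular ATP) after 24 hr compound exposure at 37 C, 2500 lymphoblastoid cells/well in complete medium. AC50 fitted with standard Hill equation; tetraoctylammonium bromide positive control.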

[7] = MultiTox-Fluor Cytotoxicity Assay - LYMP1-001 - Live Cells (AID 947);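 also: 0% = DMSO only and full inhibition = tetraoctylammonium bromide control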
[8] = Cell Viability - LYMP2-009 (AID 968); also: potency is read from the fitted curve at half-maximal effect; nearly all actives have a fitted effect of over 55% in size
[9] = Cell Viability - LYMP2-011 (AID 969); also: potency is read from the fitted curve at half-maximal effect; nearly all actives have a fitted effect of over 60% in size
How it was run: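 2500 cells/well, 5 hr 37 C; compound added, 24 hr 37 C; CellTiter-Glo 30 min RT; luminescence. qHTS concentration-response, Hill-equation AC50. Tetraoctylammonium bromide positive control.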

[10] = Cell Viability - LYMP2-013 (AID 970); also: potency is read from the fitted curve at half-maximal effect; nearly all actives have a fitted effect of over 55% in size
How it was run: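 qHTS; 2500 lymphoblastoid cells/well; 5 hr 37 C settle; cpd 24 hr 37 C; CellTiter-Glo, 30 min RT; luminescence. AC50 = Hill fit.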

[11] = Cell Viability - LYMP2-015 (AID 971); settings: LYMP2-015 lymphoblastoid cell viability; activity change, negative = lower viability: at 92.2 µM (top of the series); also: potency is read from the fitted curve at half-maximal effect; nearly all actives have a fitted effect of over 55% in size
How it was run: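 Luminescent ATP read-out (CellTiter-Glo) served as the viability measure after lymphoblastoid cells were exposed to compounds for 24 hours at 37 C. Concentration-response data were fitted with the Hill equation to give AC50.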

[12] = Cell Viability - LYMP2-017 (AID 972); also: nearly all actives have a fitted effect of over 55% in size; also: potency is read from the fitted curve at half-maximal effect; as to activity change, negative = cytotoxicity: % is scaled to controls: 0 for no effect and ±100 for the full control effect
How it was run: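 2500 cells/well, 5 h 37 C; cpd 24 h 37 C in complete medium; CellTiter-Glo, 30 min RT; luminescence (ATP). AC50 via Hill fit, qHTS.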

[13] = Cell Viability - LYMP2-019 (AID 973)
How it was run: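 Luminescent ATP read-out (CellTiter-Glo, 30 min room temperature) served as the viability measure after 24 hr treatment of lymphoblastoid cells at 37 C. Concentration-response data were fitted to the Hill equation for AC50.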

[14] = Cell Viability - LYMP2-021 (AID 974)
How it was run: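 Plate 2500 lymphoblastoid cells per well and incubate 5 hr at 37 C. Add compounds over a concentration range and incubate 24 hr at 37 C. Add CellTiter-Glo, wait 30 min at room temperature, read luminescence.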

[15] = Cell Viability - LYMP2-023 (AID 975)
How it was run: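 2500 cells/well, 5 hr 37 C; cpd 24 hr 37 C; CellTiter-Glo, 30 min RT; luminescence. qHTS conc-response, Hill fit -> AC50. Pos ctrl tetraoctylammonium bromide.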

[16] = Cell Viability - LYMP2-006 (AID 978); also: potency is read from the fitted curve at half-maximal effect; nearly all actives have a fitted effect of over 60% in size
How it was run: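 qHTS, 1536-well; 2500 cells/well, 5 hr 37 C; cpd 24 hr 37 C; CellTiter-Glo 30 min RT; luminescence. Tetraoctylammonium bromide pos. ctrl. AC50 via Hill eqn.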

[17] = Cell Viability - LYMP2-012 (AID 982); settings: LYMP2-012 lymphoblastoid cell viability qHTS; activity change, negative = cytotoxicity: at 92.2 µM (top of the series)
[18] = Cell Viability - LYMP2-022 (AID 987)
How it was run: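 qHTS: human lymphoblastoid cells 2500/well; 5 hr 37 C; cpd added; 24 hr 37 C; CellTiter-Glo, 30 min RT; luminescence. AC50 via Hill fit; tetraoctylammonium bromide positive ctrl.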

[19] = Cell Viability - LYMP2-024 (AID 988); also: nearly all actives have a fitted effect of over 60% in size; also: potency is read from the fitted curve at half-maximal effect;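 as to activity change, negative = cytotoxicity: plate controls were DMSO only for no effect and 92 µM tetraoctylammonium bromide for full effect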
How it was run: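 Steps: seed 2500 cells/well, 5 hr 37 C; add compound, 24 hr 37 C; add CellTiter-Glo, 30 min room temperature; read luminescence. AC50 derived by Hill modelling of concentration-dependent ATP loss.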

[20] = molecular target: Peroxisome proliferator-activated receptor gamma (Homo sapiens) (UniProt P37231); assay: qHTS assay for small molecule antagonists of peroxisome proliferator-activated receptor gamma signaling (AID 588537; active = well fitted inhibition curve with a large enough effect in the signal ratio, with a control signal flat, not every such curve was filed as active; inconclusive = small, poorly fitted or top-dose-only effect, or effect the other way, or a change in a side signal; the % refers to the signal ratio;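 also: reporter cells co-stimulated with 50 nM rosiglitazone agonist during compound treatment; % of control where 0% means no effect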); settings: HEK293 PPARg-UAS-bla, beta-lactamase ratio, antagonist mode; activity, negative = inhibition: at 76.8 µM (top of the series)
How it was run: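 Antagonist mode, beta-lactamase reporter in HEK293; charcoal/dextran FBS 1%; 3000 cells/well, 37 C 6-6.5 h; cpd titration + rosiglitazone 50 nM final, 16 h 37 C; CCF4, 2 h RT; 460/530 nm; Hill fit → IC50, efficacy.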

[21] = qHTS assay for small molecule agonists of the antioxidant response element (ARE) signaling pathway (AID 651741; active = well fitted activation curve with a large enough effect in the signal ratio; inconclusive = small, poorly fitted or top-dose-only effect, or effect the other way, or a change in a side signal; the % refers to the signal ratio; also: potency is read from the fitted curve at half-maximal effect); settings: HepG2 ARE-bla reporter, beta-lactamase FRET ratio, 16 h; activation: at 96 µM (top of the series) unless noted
How it was run: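 Quantitative HTS in HepG2 cells stably expressing an ARE-beta-lactamase reporter; 16 h compound exposure at 37 C, followed by 2 h room-temperature incubation with LiveBLAzer B/G FRET substrate and fluorescence measurement.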

[22] = qHTS assay to identify small molecules that stimulate interleukin-8 (IL-8) secretion (AID 651758; active = well fitted activation curve with a large enough effect in the signal ratio; inconclusive = small, poorly fitted or top-dose-only effect, or effect the other way, or a change in a side signal; the % refers to the signal ratio; also: 0% is about no effect); settings: HTRF ratio (665/615); activation: at 92.2 µM (top of the series)
How it was run: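 Secreted IL-8 measured by TR-FRET sandwich (cryptate and XL665 antibodies) from THP-1 cells exposed to compound overnight (16 hrs, 37 C).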

[23] = qHTS assay for small molecule agonists of the antioxidant response element (ARE) signaling pathway measured by Nrf2-dependant transcriptional activity (AID 720636; active = well fitted curve in the direction sought with a large enough effect in the repeat runs; inconclusive = weak or mixed curves; inactive = no such curve, though single readings can be large; an effect the other way counts as inactive or inconclusive; also: potency is read from the fitted curve at half-maximal effect)
How it was run: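 HepG2 ARE-luc reporter line, 1% dialyzed FBS; 6 hr attachment at 37 C, compound pinned in, 16 hr at 37 C/5% CO2; ONE-Glo, 30 min RT, luminescence read.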

[24] = molecular target: Thyroid hormone receptor beta (Homo sapiens) (UniProt P10828); assay: qHTS assay for small molecule antagonists of thyroid hormone receptor beta signaling (AID 588547; active = well fitted inhibition curve with a large enough effect in the signal ratio, with a control signal flat, not every such curve was filed as active; inconclusive = small, poorly fitted or top-dose-only effect, or effect the other way, or a change in a side signal; the % refers to the signal ratio; also: potency is read from the fitted curve at half-maximal effect); settings: TR-UAS-bla HEK293, beta-lactamase ratio, antagonist mode, 18 h
How it was run: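 Inhibition of T3-driven (0.4nM final) beta-lactamase reporter activity was measured over 0.59 nM to 92 uM compound after 18 h at 37 C. The cells were GripTite HEK293 TR-UAS-bla in charcoal/dextran-stripped serum, with CCF4 ratio read-out and IC50 from Hill fits.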

[25] = Cellular Toxicity (caspase-3) HepG2 (AID 654);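 also: cells exposed to compound for 16 hours before reading; 0% = DMSO alone and 100% = caspase signal from 100 µM tamoxifen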
How it was run: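 Cells plated 5 hr at 37 °C, compound added, incubated 16 hr at 37 °C. Caspase-Glo 3/7 reagent followed, 20 min at room temperature, then luminescence read. Activation scored as signal increase; AC50 from Hill fit.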

c1ccccc1
inconclusive: Potency [1] 28.2 µM [activator, single point] | Potency [2] 794 µM [activator, partial curve, poor fit] | Potency [3] 66.8 µM [rising, partial curve, poor fit]

Nc1cccc2ccccc12
inconclusive: Potency [6] 25.1 µM [cytotoxic, partial curve, poor fit] | Potency [8] 39.8 µM [cytotoxic, partial curve] | Potency [9] 39.8 µM [cytotoxic, partial curve] | Potency [10] 79.4 µM [cytotoxic, single point] | Potency [11] 39.8 µM [cytotoxic, partial curve] | Potency [12] 39.8 µM [cytotoxic, partial curve] | Potency [13] 39.8 µM [cytotoxic, partial curve] | Potency [14] 79.4 µM [cytotoxic, single point] | Potency [16] 39.8 µM [cytotoxic, partial curve, poor fit] | Potency [18] 50.1 µM [cytotoxic, partial curve, poor fit] | Potency [19] 39.8 µM [cytotoxic, partial curve] | activity change, negative = inhibition [1] -28.5% | activity, negative = inhibition [20] -2.42% | activation [2] -14.2% | Potency [21] 37.6 µM [activator, partial curve] | Potency [23] 8.41 µM [activator, full curve, poor fit]
inactive: Potency [7] | Potency [15] | Potency [17] | Potency [22]
active: Potency [4] 25.1 µM | caspase-3 activation [5] 156%

Cc1cc(Cl)ccc1N=CN(C)C
inconclusive: activity change, negative = inhibition [1] 2.52%

c1ccc2c(c1)oc1ccccc12
inconclusive: Potency [24] 8.91 µM [side channel, falling, full curve, poor fit] | Potency [21] 54.5 µM [activator, partial curve]
inactive: Potency [1]

OCCBr
inactive: Potency [25] | Potency [12] | Potency [19] | Potency [3]
